Our source for the binding values is article PMC10791687, “The Piezo channel is a mechano-sensitive complex component in the mammalian inner ear hair cell” (Nature Communications, 2024).

Amino acid sequences for entries named in this document (tags omitted).
UniProt E2JF22: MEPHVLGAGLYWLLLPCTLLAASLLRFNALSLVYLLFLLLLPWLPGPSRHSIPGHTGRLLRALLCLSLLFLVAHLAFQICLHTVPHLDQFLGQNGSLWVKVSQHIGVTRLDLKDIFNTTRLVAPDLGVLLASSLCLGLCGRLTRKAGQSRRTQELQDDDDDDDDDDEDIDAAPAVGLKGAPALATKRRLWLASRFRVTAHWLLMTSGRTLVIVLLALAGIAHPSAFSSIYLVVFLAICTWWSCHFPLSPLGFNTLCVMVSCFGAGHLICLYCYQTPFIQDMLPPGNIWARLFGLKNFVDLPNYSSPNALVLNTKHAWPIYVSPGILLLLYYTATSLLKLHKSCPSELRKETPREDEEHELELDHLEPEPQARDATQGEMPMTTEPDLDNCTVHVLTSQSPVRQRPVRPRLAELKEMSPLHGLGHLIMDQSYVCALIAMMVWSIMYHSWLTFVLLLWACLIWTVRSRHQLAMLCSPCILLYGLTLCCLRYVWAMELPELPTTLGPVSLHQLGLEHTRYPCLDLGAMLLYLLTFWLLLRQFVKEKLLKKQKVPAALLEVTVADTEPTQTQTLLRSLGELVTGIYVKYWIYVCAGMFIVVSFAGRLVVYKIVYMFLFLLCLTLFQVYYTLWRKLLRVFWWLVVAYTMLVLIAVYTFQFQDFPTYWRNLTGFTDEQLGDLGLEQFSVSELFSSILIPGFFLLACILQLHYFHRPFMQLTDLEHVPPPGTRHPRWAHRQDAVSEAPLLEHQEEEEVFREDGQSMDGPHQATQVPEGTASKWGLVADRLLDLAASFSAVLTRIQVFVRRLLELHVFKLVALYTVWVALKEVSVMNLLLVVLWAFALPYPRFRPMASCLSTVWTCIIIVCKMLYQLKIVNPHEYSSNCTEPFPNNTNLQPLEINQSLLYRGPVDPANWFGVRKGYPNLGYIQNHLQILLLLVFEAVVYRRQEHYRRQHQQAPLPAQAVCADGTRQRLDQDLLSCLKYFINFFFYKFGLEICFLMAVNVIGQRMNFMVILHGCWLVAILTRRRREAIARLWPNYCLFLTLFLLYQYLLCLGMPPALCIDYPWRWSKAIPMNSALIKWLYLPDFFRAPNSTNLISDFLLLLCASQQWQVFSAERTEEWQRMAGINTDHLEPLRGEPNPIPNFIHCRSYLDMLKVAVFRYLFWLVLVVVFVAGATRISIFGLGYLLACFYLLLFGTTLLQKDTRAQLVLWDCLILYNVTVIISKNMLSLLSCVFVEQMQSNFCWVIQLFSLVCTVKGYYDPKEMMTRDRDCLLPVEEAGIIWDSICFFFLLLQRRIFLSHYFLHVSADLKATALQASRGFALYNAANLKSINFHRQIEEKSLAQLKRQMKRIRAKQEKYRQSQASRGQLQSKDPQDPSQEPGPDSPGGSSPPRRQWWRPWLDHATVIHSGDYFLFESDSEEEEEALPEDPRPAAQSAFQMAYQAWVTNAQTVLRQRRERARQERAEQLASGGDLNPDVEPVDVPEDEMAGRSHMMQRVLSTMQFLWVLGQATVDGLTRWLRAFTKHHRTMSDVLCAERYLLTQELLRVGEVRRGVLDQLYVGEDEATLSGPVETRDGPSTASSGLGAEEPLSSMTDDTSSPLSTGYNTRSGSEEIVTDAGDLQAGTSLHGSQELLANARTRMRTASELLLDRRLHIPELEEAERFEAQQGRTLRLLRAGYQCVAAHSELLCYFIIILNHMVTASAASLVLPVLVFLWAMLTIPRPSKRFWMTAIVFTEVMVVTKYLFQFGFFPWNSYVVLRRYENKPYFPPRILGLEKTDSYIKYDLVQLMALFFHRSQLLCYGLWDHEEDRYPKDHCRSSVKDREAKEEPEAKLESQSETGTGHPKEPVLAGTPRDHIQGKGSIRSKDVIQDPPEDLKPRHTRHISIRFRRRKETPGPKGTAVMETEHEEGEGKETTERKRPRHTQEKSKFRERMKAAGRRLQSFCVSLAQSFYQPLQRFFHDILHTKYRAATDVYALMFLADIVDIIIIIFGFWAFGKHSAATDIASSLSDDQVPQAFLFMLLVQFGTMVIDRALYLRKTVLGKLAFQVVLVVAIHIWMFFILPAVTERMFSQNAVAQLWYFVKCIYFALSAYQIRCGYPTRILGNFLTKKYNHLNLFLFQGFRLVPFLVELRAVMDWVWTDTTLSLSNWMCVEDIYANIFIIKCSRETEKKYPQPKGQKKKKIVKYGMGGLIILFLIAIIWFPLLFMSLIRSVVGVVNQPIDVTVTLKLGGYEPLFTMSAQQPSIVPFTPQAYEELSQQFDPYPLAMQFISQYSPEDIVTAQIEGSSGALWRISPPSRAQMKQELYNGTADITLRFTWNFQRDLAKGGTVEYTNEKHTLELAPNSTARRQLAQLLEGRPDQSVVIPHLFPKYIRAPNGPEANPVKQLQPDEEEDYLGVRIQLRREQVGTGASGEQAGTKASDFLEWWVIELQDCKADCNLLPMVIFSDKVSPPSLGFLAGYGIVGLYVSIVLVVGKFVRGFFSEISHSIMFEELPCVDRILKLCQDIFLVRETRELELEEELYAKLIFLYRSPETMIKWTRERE
UniProt Q8CD54: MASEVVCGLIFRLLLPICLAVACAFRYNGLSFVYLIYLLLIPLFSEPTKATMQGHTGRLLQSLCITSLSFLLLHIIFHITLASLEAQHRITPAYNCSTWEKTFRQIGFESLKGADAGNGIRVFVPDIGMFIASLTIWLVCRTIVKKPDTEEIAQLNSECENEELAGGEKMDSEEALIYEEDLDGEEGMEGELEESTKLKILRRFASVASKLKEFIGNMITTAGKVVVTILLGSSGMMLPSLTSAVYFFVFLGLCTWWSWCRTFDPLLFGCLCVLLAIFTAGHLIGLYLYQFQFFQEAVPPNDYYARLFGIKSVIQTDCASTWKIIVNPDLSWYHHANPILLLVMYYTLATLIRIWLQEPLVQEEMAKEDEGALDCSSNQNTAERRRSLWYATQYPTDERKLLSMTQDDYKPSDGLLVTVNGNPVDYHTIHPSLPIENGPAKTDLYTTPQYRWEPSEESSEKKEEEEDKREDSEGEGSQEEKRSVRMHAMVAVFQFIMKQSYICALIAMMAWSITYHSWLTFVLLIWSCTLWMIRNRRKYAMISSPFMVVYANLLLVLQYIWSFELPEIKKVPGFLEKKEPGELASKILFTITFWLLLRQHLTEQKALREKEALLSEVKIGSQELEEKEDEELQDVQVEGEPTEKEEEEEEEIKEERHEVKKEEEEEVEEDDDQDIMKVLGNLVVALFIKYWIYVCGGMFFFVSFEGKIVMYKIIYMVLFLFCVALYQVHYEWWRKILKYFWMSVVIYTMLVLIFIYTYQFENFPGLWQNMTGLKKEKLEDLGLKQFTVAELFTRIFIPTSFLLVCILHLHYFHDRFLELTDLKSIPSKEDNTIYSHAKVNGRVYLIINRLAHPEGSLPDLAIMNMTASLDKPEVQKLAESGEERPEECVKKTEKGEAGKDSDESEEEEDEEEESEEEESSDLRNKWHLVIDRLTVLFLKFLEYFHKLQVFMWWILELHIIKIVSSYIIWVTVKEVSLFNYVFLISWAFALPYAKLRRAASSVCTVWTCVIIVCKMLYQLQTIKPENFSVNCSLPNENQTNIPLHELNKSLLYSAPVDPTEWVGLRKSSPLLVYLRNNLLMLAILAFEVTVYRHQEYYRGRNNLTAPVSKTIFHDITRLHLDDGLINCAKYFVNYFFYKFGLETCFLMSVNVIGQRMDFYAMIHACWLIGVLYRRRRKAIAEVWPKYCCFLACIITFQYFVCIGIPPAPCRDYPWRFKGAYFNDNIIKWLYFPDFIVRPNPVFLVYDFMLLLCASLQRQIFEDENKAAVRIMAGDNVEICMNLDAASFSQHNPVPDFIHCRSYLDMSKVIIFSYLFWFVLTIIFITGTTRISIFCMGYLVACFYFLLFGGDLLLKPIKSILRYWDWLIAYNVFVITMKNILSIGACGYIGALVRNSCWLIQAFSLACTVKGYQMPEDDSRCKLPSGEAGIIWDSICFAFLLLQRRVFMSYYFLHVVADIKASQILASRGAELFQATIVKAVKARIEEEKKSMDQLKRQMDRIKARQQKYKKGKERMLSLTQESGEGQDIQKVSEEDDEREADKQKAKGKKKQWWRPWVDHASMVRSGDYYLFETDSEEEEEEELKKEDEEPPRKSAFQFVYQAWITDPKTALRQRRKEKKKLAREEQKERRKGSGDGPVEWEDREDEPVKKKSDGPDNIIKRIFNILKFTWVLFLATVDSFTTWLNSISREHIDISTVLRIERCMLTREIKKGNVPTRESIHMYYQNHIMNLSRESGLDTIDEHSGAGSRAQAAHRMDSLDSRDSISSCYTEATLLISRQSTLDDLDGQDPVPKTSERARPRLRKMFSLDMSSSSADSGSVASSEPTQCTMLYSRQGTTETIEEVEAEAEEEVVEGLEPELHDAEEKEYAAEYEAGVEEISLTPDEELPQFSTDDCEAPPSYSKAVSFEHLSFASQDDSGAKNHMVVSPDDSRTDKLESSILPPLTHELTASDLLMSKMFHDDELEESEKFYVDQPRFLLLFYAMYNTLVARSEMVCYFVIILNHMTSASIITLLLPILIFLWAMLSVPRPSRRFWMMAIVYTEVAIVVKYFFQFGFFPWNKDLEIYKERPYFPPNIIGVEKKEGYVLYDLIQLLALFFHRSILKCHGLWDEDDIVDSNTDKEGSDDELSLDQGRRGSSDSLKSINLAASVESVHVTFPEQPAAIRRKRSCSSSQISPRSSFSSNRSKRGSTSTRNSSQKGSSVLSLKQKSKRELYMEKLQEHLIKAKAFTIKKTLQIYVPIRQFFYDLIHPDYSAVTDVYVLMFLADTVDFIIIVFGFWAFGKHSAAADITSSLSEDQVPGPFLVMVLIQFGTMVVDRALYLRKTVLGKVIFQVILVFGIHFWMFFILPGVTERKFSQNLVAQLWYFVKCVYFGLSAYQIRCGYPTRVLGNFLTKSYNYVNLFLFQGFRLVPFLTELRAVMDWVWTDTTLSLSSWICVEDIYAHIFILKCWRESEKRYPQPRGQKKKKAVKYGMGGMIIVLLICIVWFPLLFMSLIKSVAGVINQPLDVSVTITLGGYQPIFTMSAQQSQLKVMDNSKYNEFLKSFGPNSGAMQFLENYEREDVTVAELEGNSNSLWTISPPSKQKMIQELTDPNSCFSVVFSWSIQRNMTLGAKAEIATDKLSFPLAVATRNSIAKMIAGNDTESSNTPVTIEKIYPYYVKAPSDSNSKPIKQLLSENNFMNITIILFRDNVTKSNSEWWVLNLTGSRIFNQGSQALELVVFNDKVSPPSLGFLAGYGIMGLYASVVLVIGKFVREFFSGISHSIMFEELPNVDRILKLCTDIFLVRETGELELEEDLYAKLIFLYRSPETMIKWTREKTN

The target of test [1] is FLAG-tagged mouse Piezo1 expressed in HEK 293 cells (mouse) (UniProt E2JF22). Briefly: co-IP; HEK 293 cells transiently co-transfected with Flag-mPz1 and one tagged partner; IP lysis buffer, antibody on Dynabeads Protein G, 20 min at RT; IP with anti-FLAG, anti-mCherry, anti-His, anti-Myc, anti-HA or anti-V5, Western blot with the tag antibodies. A general note: A western blot detects proteins with antibodies after separation by electrophoresis.

Test [2] addresses Piezo2-GFP fusion protein (Pz2-GFP), knock-in mouse (mouse) (UniProt Q8CD54). Briefly: FRET or BRET; acceptor photobleaching FRET in OHC stereocilia isolated from mice expressing Pz2-GFP and Tmc1-mCherry.
Test [3] has the same target. Put plainly: co-IP; cochlear tissue of Tmc2-AcGFP: Pz1-tdT and Tmc1-mCherry: Pz2-GFP mice homogenized in Pierce IP lysis buffer; lysate with GFP-antibody at 4 °C overnight, Dynabeads Protein G; immunoblot with anti-tdTomato or anti-mCherry; negative controls from non-transgenic cochlear tissue.

These are yes or no findings as the source states them, for the method shown. In cells and extracts the contact can be indirect. Some binding calls cover weakened binding; strength is not graded here. Tags and fused reporters may be left off the sequences shown.

B1: mCherry-tagged mouse Tmc2 expressed in HEK 293 cells (protein, UniProt Q8R4P4 1-888)
chain: MSPQLKSLDEEGDKSARRPTRKQTSRAACPQDGHRAQSSRKDPAKGSPRPGSSRKKQMEHGSYHKGLQGQKPRKVERSLQGRKKDRRTSLKEQRASPKKEREALRKEAGKQLRKPRSTSLGSSVSTGDSLSEEELAQILEQVEEKKKLITTVRNKPWPMAKKLRELREAQAFVEKYEGALGKGKGKHLYAYRMMMAKKWVKFKRDFDNFKTQCIPWEMKIKDIESHFGSSVASYFIFLRWMYGVNLVLFGLIFGLVIIPEVLMGMPYGSIPRKTVPRAEEERAMDFSVLWDFEGYIKYSALFYGYYNNQRTIGWLRYRLPMAYFMVGVSVFGYSLMIVIRSMASNTQGSTSEGDSDSFTFSFKMFTSWDYLIGNSETADNKYVSITTSFKESIVDEQESNKEGNIHLTRFLRVLANFLILCCLCGSGYLIYFVVKRSQEFSKMQNVSWYERNEVEIVMSLLGMFCPPLFETIAALENYHPRTGLKWQLGRIFALFLGNLYTFLLALMDDVHLKLSNEEKIKNITHWTLFNYYNSSGGNESVPRPPPHPADVPRGSCWETAVGIEFMRLTVSDMLVTYLTILVGDFLRACFVRFMNHCWCWDLEAGFPSYAEFDISGNVLGLIFNQGMIWMGSFYAPGLVGINVLRLLTSMYFQCWAVMSSNVPHERVFKASRSNNFYMGLLLLVLFLSLLPVAYTVMSLPPSFDCGPFSGKNRMYDVLHETIENDFPKFLGKIFAFLANPGLIIPAILLMFLAIYYLNSVSKSLSRANAQLRKKIQALREVEKNHKSIKGKAIVTYSEDTIKNSSKNATQIHLTKEEPTSHSSSQIQTLDKKAQGPHTSSTEGGASPSTSWHHVGSQPPRGRRDSGQPQSQTYTGRSPSGKRTQRPHN
For B1, the binding result in test [1] is “binds”.

B2: Tmc1-mCherry fusion protein, transgenic mouse (protein, UniProt Q8R4P5 1-757)
chain: MLQIQVEEKEEDTEESSSEEEEDKLPRRESLRPKRKRTRDVINEDDPEPEPEDEETRKAREKERRRRLRRGAEEEEEIDEEELERLKALLDENRQMIATVKCKPWKMEKKIEVLKEAKKFVSENEGALGKGKGKKWFAFKMMMAKKWAKFLRDFENFKAACVPWENKIKAIESQFGSSVASYFLFLRWMYGVNMVLFVLTFSLIMLPEYLWGLPYGSLPRKTVPRAEEASAANFGVLYDFNGLAQYSVLFYGYYDNKRTIGWLNFRLPLSYFLVGIMCIGYSFLVVLKAMTKNIGDDGGGDDNTFNFSWKVFCSWDYLIGNPETADNKFNSITMNFKEAIIEERAAQVEENIHLIRFLRFLANFFVFLTLGASGYLIFWAVKRSQEFAQQDPDTLGWWEKNEMNMVMSLLGMFCPTLFDLFAELEDYHPLIALKWLLGRIFALLLGNLYVFILALMDEINNKIEEEKLVKANITLWEANMIKAYNESLSGLSGNTTGAPFFVHPADVPRGPCWETMVGQEFVRLTVSDVLTTYVTILIGDFLRACFVRFCNYCWCWDLEYGYPSYTEFDISGNVLALIFNQGMIWMGSFFAPSLPGINILRLHTSMYFQCWAVMCCNVPEARVFKASRSNNFYLGMLLLILFLSTMPVLYMIVSLPPSFDCGPFSGKNRMFEVIGETLEHDFPSWMAKILRQLSNPGLVIAVILVMVLTIYYLNATAKGQKAANLDLKKKMKQQALENKMRNKKMAAARAAAAAGGQ
Turning to B2, the binding result in test [2] and in test [3] was “binds” in each case.

B3: mCherry-tagged mouse Tmc1 expressed in HEK 293 cells (protein, UniProt Q8R4P5 1-757)
chain: B2 chain
B3: the binding entry in test [1] is “binds”.
